Experimental findings from the supplement of paper PMC12578635 are described below.

Structures are written as SMILES. ± gives the standard deviation of the averaged measurements. Some of the results follow. Repeats are few or missing, and single values can be far off.

The subject of this assay is RAW 264.7 macrophages infected with S. aureus JE2-lux. Put plainly: host macrophage viability (CellTiter-Fluor) relative to DMSO vehicle; higher = more viable host cells. To be noted: 10 µM; treatment time 4 h; gentamicin 50 µg/ml.
On to `CCOC(=O)CC(NC(=O)Nc1c(-c2ccncc2)[nH]c2ccc(F)cc12)c1ccccc1` (stereo unspecified), for which the host macrophage viability is 139%.
Then `O=C(COc1cccc2ccc(N3CCN(c4ccccc4)CC3)nc12)Nc1cccc(F)c1`, with 135%.
As for `CCCCOc1ccccc1C1CC(=O)Nc2c1c(C)nn2-c1nc2ccccc2s1` (stereo unspecified), the figure is 105%.
As for `COc1cccc(NC(=O)c2cc3c(=O)n4ccccc4nc3n(CC(C)C)c2=N)c1`, the figure is 134%; as for `COc1ccccc1OCC(=O)Nc1noc(-c2cccc(C)c2)n1`, 106%; as for `CCOc1ccc(C(=O)Nc2c(N)nc(SCC(=O)N(CC)CC)[nH]c2=O)cc1`, 104%.
Turning to `CCOc1ccccc1NC(=O)CSc1nc2cc3c(cc2cc1C#N)OCO3`, the host macrophage viability was determined as 149%.
Then `Cc1ccc(S(=O)(=O)Nc2ccccc2C(=O)Nc2sc3c(c2C#N)CCC3)cc1`, with 136%; and `Cc1ccc(-n2nnc(C(=O)N3CCSCC3)c2-c2ccncc2)cc1C`, with 114%; and `CC1CN(C)CCC1CCc1ccc(NC(=O)c2n[nH]c3c2CCC3)cc1` (stereo unspecified), with 126%.
On to `Cc1ccc(-c2noc(-c3cccnc3N(C)Cc3ccccc3)n2)cc1`, for which the host macrophage viability is 127%.
Then `COc1ccc(N2CCN(c3ncnc4c3c(C)c(C)n4-c3ccccc3)CC2)cc1`, with 110%; and `Cc1ccc(-c2nc3n(CC(=O)N4CCCCC4C)c(C)c(Cc4ccccc4)c(=O)n3n2)cc1` (stereo unspecified), with 122%; and `Cc1cc(SCc2cccc3ccccc23)nc(=O)[nH]1`, with 120%.
Then `N#Cc1cc2cc3c(cc2nc1SCC(=O)N(c1ccccc1)c1ccccc1)OCO3`, with 123%; and `COc1ccccc1N1CCN(S(=O)(=O)c2c[nH]c(=O)[nH]c2=O)CC1`, with 124%; and `Cn1c(=O)oc2cc(NS(=O)(=O)c3ccc4c(c3)CCC(=O)N4)ccc21`, with 113%.
`O=C(Cn1c(=O)c2cccnc2n(-c2ccccc2)c1=O)Nc1ccc(Br)cc1`: the host macrophage viability was 119%.
As for `Cc1cc(CNC(=O)c2c(-c3ccncc3)noc2C)c2[nH]c(C)c(C)c2c1`, the figure is 142%.
On to `CNS(=O)(=O)c1cc(-c2cc(C(=O)N3CCN(c4ccc(OC)cc4)CC3)n[nH]2)ccc1OC`, for which the host macrophage viability came out at 98.2%.
As for `COc1ccc(OC)c(NC(=O)CC2Sc3ccccc3NC2=O)c1` (stereo unspecified), the figure is 120%; as for `O=C(NCC1CCCCC1)C1CCCN(C(=O)NCc2ccccc2)C1` (stereo unspecified), 112%.
As for `CC1=C(C(=O)Nc2ccccc2F)C(c2ccc(N(C)C)cc2)NC(=O)N1` (stereo unspecified), the figure is 115%; as for `CCc1noc2ncnc(N3CCCC(C(=O)NCc4ccccc4F)C3)c12` (stereo unspecified), 124%; as for `Cc1sc2ncnc(NCCC3=CCCCC3)c2c1S(=O)(=O)N1CCCCC1`, 134%.
As for `Cc1n[nH]c2c1C(c1cccs1)C(C#N)=C(N)O2` (stereo unspecified), the figure is 105%; as for `Clc1cc(Cl)c2nc(N3CCCCC3)sc2c1`, 105 ± 6.6%.
For `C=CCOC(=O)C1=C(C)Nc2[nH]c(=O)[nH]c(=O)c2C1c1cccc(O)c1` (stereo unspecified), the host macrophage viability came out at 121%.
As for `O=C(O)CCc1nnc(SCC(=O)Nc2ccc(Cl)cc2)[nH]c1=O`, the figure is 110%.
Take `CSc1nc2ccc3nc(NC(=O)C4COc5ccccc5O4)sc3c2s1` (stereo unspecified): the host macrophage viability was 115%.
Regarding `Cc1nc(N2CCOCC2)ncc1C(=O)NC1CCCC1`, the host macrophage viability was found to be 111%.
As for `CCN1C(=O)NC2(CCN(CC(=O)Nc3ccc4c(c3)OCO4)CC2)C1=O`, the figure is 110%; as for `COc1ccc(CCNC(=O)Cn2ncn3nc4c(c3c2=O)CCCC4)cc1OC`, 120%.
Then `Cc1ccc(-n2ccn3c(CCCC(=O)O)nnc3c2=O)cc1C`, with 86.3%.
Then `CCOCCCNC(=O)Cn1nc(-c2ccco2)cc(N)c1=O`, with 117%.
On to `Cc1ccc(-c2nc(Cn3nnc(-c4nc(-c5ccccc5Cl)no4)c3C)c(C)o2)cc1`, for which the host macrophage viability turned out to be 123%.
As for `CCOc1cccc(C2Nc3c(C)cc(C)cc3[C@H]3OCCC[C@@H]23)c1OC` (stereo partly specified), the figure is 120%; as for `O=C1NC(c2ccc3c(c2)OCO3)C(C(=O)c2ccccc2)C(O)(C(F)(F)F)N1` (stereo unspecified), 125%; as for `N#C/C(=C\c1ccc(-c2ccccc2[N+](=O)[O-])o1)C(=O)Nn1cnnc1`, 101 ± 21%.
As for `COc1ccc(NC(=O)N(CCc2ccc(OC)c(OC)c2)Cc2cc3cc(C)ccc3[nH]c2=O)cc1`, the figure is 112%; as for `COc1ccccc1/C=C/C=C(\C#N)c1nc2ccccc2c(=O)[nH]1`, 117%; as for `CN(Cc1cccc2ncccc12)C(=O)c1cnn(-c2ccc(F)cc2)c1`, 122%.
Turning to `CCOC(=O)c1sc(NC(=O)CSc2ncnc3sc(C)c(C)c23)c(C(=O)OCC)c1C`, the host macrophage viability amounted to 101 ± 10%.
Then `CC(=O)Nc1ccc(NC(=O)c2ncoc2-c2ccc(F)cc2)cc1C`, with 112%.
Then `COC(CNC(=O)c1c(O)nc2ccccn2c1=O)OC`, with 133%.
Then `Cc1nc(Nc2ccccc2)c([N+](=O)[O-])c(Nc2ccccc2)n1`, with 106%; and `O=C(c1cnc2ccccc2c1S(=O)(=O)c1cccc(F)c1)N1CCSCC1`, with 112%; and `O=C(CSc1nc(C2CC2)nc2ccccc12)Nc1ccc2c(c1)OCO2`, with 115%.
Consider `Cn1c(=O)c2c(nc(NCc3ccccc3)n2Cc2cccc3ccccc23)n(C)c1=O`, for which the host macrophage viability was 129%.
As for `CCn1/c(=N\C(=O)CS(=O)(=O)c2ccccc2)sc2cc([N+](=O)[O-])ccc21`, the figure is 122%.
As for `Cc1nc2nc(Cc3cccc(F)c3)nn2c(NCc2cccs2)c1C`, the figure is 126%; as for `O=C(CCC(=O)Nc1noc2ccccc12)NCCc1ccc(Cl)cc1`, 78.2%.
For the molecule `O=C(/C=C/c1ccccc1)Nc1nnc(-c2ccc(F)cc2)o1`, the host macrophage viability stood at 117%.
Consider `c1coc(-c2nn3c(-c4ccco4)nnc3s2)c1`, for which the host macrophage viability is 108%.
Consider `COc1ccc(CCNC(=O)C(=O)Nc2ccc(F)c(F)c2)cc1`, for which the host macrophage viability is 110%.
As for `CCOc1ccc(NC(=S)NCCNc2nc3cc(C)cc(C)c3cc2C#N)cc1`, the figure is 149%; as for `O=C1NC(c2ccc(F)cc2)C(C(=O)c2cccs2)C(O)(C(F)(F)F)N1` (stereo unspecified), 112%.
As for `COc1ccc2nc(CN[C@@H]3CCC(=O)N[C@H]3c3cc(F)cc(F)c3)ccc2c1`, the host macrophage viability was 110%.
As for `COc1ccc2cc(C)c3nn(CCNC(=O)c4cscn4)c(=O)n3c2c1`, the figure is 123%; as for `N#Cc1ccccc1NC(=O)C(=O)NCCSc1nc(-c2ccccc2)c[nH]1`, 120%.
Regarding `Cc1cc2oc(C(=O)NC3CCCOC3)cc(=O)c2cc1C` (stereo unspecified), the host macrophage viability stood at 99.3%.
In the case of `CC(=O)Nc1nc2cc(NC(=O)c3cccnc3)ccc2s1`, the host macrophage viability worked out at 126%.
As for `O=S(=O)(c1cccc2cccnc12)N1CCN(Cc2noc3ccccc23)CC1`, the figure is 125%; as for `CCOC(=O)c1nn(-c2ccccc2)c(=O)cc1OCC(=O)Nc1cc(OC)cc(OC)c1`, 103%.
Then `O=C(NCc1ccc2c(c1)OCO2)c1ccc(=O)[nH]n1`, with 114%; and `Cc1c(Cc2ccc3c(c2)OCO3)sc(NC(=O)c2ccc(Br)s2)c1C#N`, with 147%.
